# Laboratory results from the supplement of paper PMC8728848.
# The list shows a part of the results.
# Legend:
# Assay in all cases: glycan array binding signal (z-score within array); higher = stronger binding
# Details in all cases: glycan notation: IUPAC condensed, linker removed
# [1] = biological target: GlcNAc(a1-6)Gal(b1-4)GlcNAc
# Summary of the method: (§1)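 Glycan array binding is given as a within-array Z-score, which can be read as non-binding when negative. The arrays, 3228 of them, came from the Consortium for Functional Glycomics database and were retained only where the protein sequence was available. Z-scores were averaged across arrays of the same protein sequence at different concentrations or buffers and across linkers.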
# [2] = biological target: GlcNAc(b1-2)Gal(b1-3)GalNAc
# Summary of the method: as §1
# [3] = biological target: GlcNAc(b1-2)Man(a1-3)[GlcNAc(b1-2)Man(a1-6)]Man(b1-4)GlcNAc(b1-4)GlcNAc
# Summary of the method: as §1
# [4] = biological target: GlcNAc(b1-2)Man(a1-3)[GlcNAc(b1-2)Man(a1-6)]Man(b1-4)GlcNAc(b1-4)[Fuc(a1-6)]GlcNAc
# Summary of the method: as §1
# [5] = biological target: GlcNAc(b1-2)Man(a1-3)[GlcNAc(b1-4)][GlcNAc(b1-2)Man(a1-6)]Man(b1-4)GlcNAc(b1-4)GlcNAc
# Summary of the method: as §1
# [6] = biological target: GlcNAc(b1-2)Man(a1-3)[GlcNAc(b1-4)][GlcNAc(b1-2)Man(a1-6)]Man(b1-4)GlcNAc(b1-4)[Fuc(a1-6)]GlcNAc
# Summary of the method: as §1
# [7] = biological target: GlcNAc(b1-2)[GlcNAc(b1-4)]Man(a1-3)[GlcNAc(b1-2)Man(a1-6)]Man(b1-4)GlcNAc(b1-4)GlcNAc
# Summary of the method: as §1
# [8] = biological target: GlcNAc(b1-2)[GlcNAc(b1-4)]Man(a1-3)[GlcNAc(b1-4)][GlcNAc(b1-2)Man(a1-6)]Man(b1-4)GlcNAc(b1-4)GlcNAc
# Summary of the method: as §1
# [9] = biological target: GlcNAc(b1-2)[GlcNAc(b1-4)]Man(a1-3)[GlcNAc(b1-4)][GlcNAc(b1-2)[GlcNAc(b1-6)]Man(a1-6)]Man(b1-4)GlcNAc(b1-4)GlcNAc
# Summary of the method: as §1
# [10] = biological target: GlcNAc(b1-2)[GlcNAc(b1-4)]Man(a1-3)[GlcNAc(b1-4)][GlcNAc(b1-2)[GlcNAc(b1-6)]Man(a1-6)]Man(b1-4)GlcNAc(b1-4)[Fuc(a1-6)]GlcNAc
# Summary of the method: as §1
# [11] = biological target: GlcNAc(b1-2)[GlcNAc(b1-6)]Man(a1-6)[GlcNAc(b1-2)Man(a1-3)]Man(b1-4)GlcNAc(b1-4)GlcNAc
# Summary of the method: as §1
# [12] = biological target: GlcNAc(b1-2)[GlcNAc(b1-6)]Man(a1-6)[GlcNAc(b1-2)Man(a1-3)]Man(b1-4)GlcNAc(b1-4)[Fuc(a1-6)]GlcNAc
# Summary of the method: as §1
# [13] = biological target: GlcNAc(b1-2)[GlcNAc(b1-6)]Man(a1-6)[GlcNAc(b1-4)][GlcNAc(b1-2)Man(a1-3)]Man(b1-4)GlcNAc(b1-4)GlcNAc
# Summary of the method: as §1
# [14] = biological target: GlcNAc(b1-3)Fuc
# Summary of the method: as §1
# [15] = biological target: GlcNAc(b1-3)Gal
# Summary of the method: as §1
# [16] = biological target: GlcNAc(b1-3)Gal(b1-3)GalNAc
# Summary of the method: as §1
# [17] = biological target: GlcNAc(b1-3)Gal(b1-4)Glc
# Summary of the method: as §1
# [18] = biological target: GlcNAc(b1-3)Gal(b1-4)GlcNAc
# Summary of the method: as §1
# [19] = biological target: GlcNAc(b1-3)Gal(b1-4)GlcNAc(b1-2)Man(a1-3)[GlcNAc(b1-3)Gal(b1-4)GlcNAc(b1-2)Man(a1-6)]Man(b1-4)GlcNAc(b1-4)GlcNAc
# Summary of the method: as §1
# [20] = biological target: GlcNAc(b1-3)Gal(b1-4)GlcNAc(b1-2)Man(a1-3)[GlcNAc(b1-3)Gal(b1-4)GlcNAc(b1-2)Man(a1-6)]Man(b1-4)GlcNAc(b1-4)[Fuc(a1-6)]GlcNAc
# Summary of the method: as §1
# [21] = biological target: GlcNAc(b1-3)Gal(b1-4)GlcNAc(b1-2)[GlcNAc(b1-3)Gal(b1-4)GlcNAc(b1-6)]Man(a1-6)[GlcNAc(b1-3)Gal(b1-4)GlcNAc(b1-2)Man(a1-3)]Man(b1-4)GlcNAc(b1-4)GlcNAc
# Summary of the method: as §1
# [22] = biological target: GlcNAc(b1-3)Gal(b1-4)GlcNAc(b1-3)Gal(b1-4)GlcNAc
# Summary of the method: as §1
# [23] = biological target: GlcNAc(b1-3)Gal(b1-4)GlcNAc(b1-3)Gal(b1-4)GlcNAc(b1-2)Man(a1-3)[GlcNAc(b1-3)Gal(b1-4)GlcNAc(b1-3)Gal(b1-4)GlcNAc(b1-2)Man(a1-6)]Man(b1-4)GlcNAc(b1-4)GlcNAc
# Summary of the method: as §1
# [24] = biological target: GlcNAc(b1-3)Gal(b1-4)GlcNAc(b1-3)Gal(b1-4)GlcNAc(b1-2)Man(a1-3)[GlcNAc(b1-3)Gal(b1-4)GlcNAc(b1-3)Gal(b1-4)GlcNAc(b1-2)Man(a1-6)]Man(b1-4)GlcNAc(b1-4)[Fuc(a1-6)]GlcNAc
# Summary of the method: as §1
# [25] = biological target: GlcNAc(b1-3)Gal(b1-4)GlcNAc(b1-3)Gal(b1-4)GlcNAc(b1-2)[GlcNAc(b1-3)Gal(b1-4)GlcNAc(b1-3)Gal(b1-4)GlcNAc(b1-6)]Man(a1-6)[GlcNAc(b1-3)Gal(b1-4)GlcNAc(b1-3)Gal(b1-4)GlcNAc(b1-2)Man(a1-3)]Man(b1-4)GlcNAc(b1-4)[Fuc(a1-6)]GlcNAc
# Summary of the method: as §1
# [26] = biological target: GlcNAc(b1-3)Gal(b1-4)GlcNAc(b1-3)Gal(b1-4)GlcNAc(b1-3)Gal(b1-4)GlcNAc(b1-2)Man(a1-3)[GlcNAc(b1-3)Gal(b1-4)GlcNAc(b1-3)Gal(b1-4)GlcNAc(b1-3)Gal(b1-4)GlcNAc(b1-2)Man(a1-6)]Man(b1-4)GlcNAc(b1-4)GlcNAc
# Summary of the method: as §1
# [27] = biological target: GlcNAc(b1-3)Gal(b1-4)GlcNAc(b1-3)Gal(b1-4)GlcNAc(b1-3)Gal(b1-4)GlcNAc(b1-2)Man(a1-3)[GlcNAc(b1-3)Gal(b1-4)GlcNAc(b1-3)Gal(b1-4)GlcNAc(b1-3)Gal(b1-4)GlcNAc(b1-2)Man(a1-6)]Man(b1-4)GlcNAc(b1-4)[Fuc(a1-6)]GlcNAc
# Summary of the method: as §1
# [28] = biological target: GlcNAc(b1-3)Gal(b1-4)GlcNAc(b1-3)Gal(b1-4)GlcNAc(b1-3)Gal(b1-4)GlcNAc(b1-2)[GlcNAc(b1-3)Gal(b1-4)GlcNAc(b1-3)Gal(b1-4)GlcNAc(b1-3)Gal(b1-4)GlcNAc(b1-6)]Man(a1-6)[GlcNAc(b1-3)Gal(b1-4)GlcNAc(b1-3)Gal(b1-4)GlcNAc(b1-3)Gal(b1-4)GlcNAc(b1-2)Man(a1-3)]Man(b1-4)GlcNAc(b1-4)[Fuc(a1-6)]GlcNAc
# Summary of the method: as §1
# [29] = biological target: GlcNAc(b1-3)Gal(b1-4)GlcNAc(b1-3)Gal(b1-4)GlcNAc(b1-3)Gal(b1-4)GlcNAc(b1-3)Gal(b1-4)GlcNAc(b1-2)Man(a1-3)[GlcNAc(b1-3)Gal(b1-4)GlcNAc(b1-3)Gal(b1-4)GlcNAc(b1-3)Gal(b1-4)GlcNAc(b1-3)Gal(b1-4)GlcNAc(b1-2)Man(a1-6)]Man(b1-4)GlcNAc(b1-4)GlcNAc
# Summary of the method: as §1
# [30] = biological target: GlcNAc(b1-3)Gal(b1-4)GlcNAc(b1-3)Gal(b1-4)GlcNAc(b1-3)Gal(b1-4)GlcNAc(b1-3)Gal(b1-4)GlcNAc(b1-2)Man(a1-3)[GlcNAc(b1-3)Gal(b1-4)GlcNAc(b1-3)Gal(b1-4)GlcNAc(b1-3)Gal(b1-4)GlcNAc(b1-3)Gal(b1-4)GlcNAc(b1-2)Man(a1-6)]Man(b1-4)GlcNAc(b1-4)[Fuc(a1-6)]GlcNAc
# Summary of the method: as §1
# [31] = biological target: GlcNAc(b1-3)Gal(b1-4)GlcNAc(b1-3)Gal(b1-4)GlcNAc(b1-3)Gal(b1-4)GlcNAc(b1-3)Gal(b1-4)GlcNAc(b1-2)[GlcNAc(b1-3)Gal(b1-4)GlcNAc(b1-3)Gal(b1-4)GlcNAc(b1-3)Gal(b1-4)GlcNAc(b1-3)Gal(b1-4)GlcNAc(b1-6)]Man(a1-6)[GlcNAc(b1-3)Gal(b1-4)GlcNAc(b1-3)Gal(b1-4)GlcNAc(b1-3)Gal(b1-4)GlcNAc(b1-3)Gal(b1-4)GlcNAc(b1-2)Man(a1-3)]Man(b1-4)GlcNAc(b1-4)[Fuc(a1-6)]GlcNAc
# Summary of the method: as §1
# [32] = biological target: GlcNAc(b1-3)Gal(b1-4)GlcNAc(b1-3)Gal(b1-4)GlcNAc(b1-3)GalNAc
# Summary of the method: as §1
# [33] = biological target: GlcNAc(b1-3)Gal(b1-4)GlcNAc(b1-3)GalNAc
# Summary of the method: as §1
# [34] = biological target: GlcNAc(b1-3)Gal(b1-4)GlcNAc(b1-3)[GlcNAc(b1-3)Gal(b1-4)GlcNAc(b1-3)]GalNAc
# Summary of the method: as §1
# [35] = biological target: GlcNAc(b1-3)Gal(b1-4)GlcNAc(b1-6)[Gal(b1-3)]GalNAc
# Summary of the method: as §1
# [36] = biological target: GlcNAc(b1-3)Gal(b1-4)GlcNAc(b1-6)[GlcNAc(b1-3)Gal(b1-3)]GalNAc
# Summary of the method: as §1
# [37] = biological target: GlcNAc(b1-3)Gal(b1-4)GlcNAc(b1-6)[GlcNAc(b1-3)]Gal(b1-4)GlcNAc
# Summary of the method: as §1
binder,measurement,setting,value
"AT3G09350(27) (Arabidopsis thaliana), Q84J81 (protein) MAKDGPNWDGLLKWSLSHADGTRPTRQLSEEDRKWFMEAMQSQTVDVVKRMKEITLVMQTPEQVLVEHGVTPEDIQDLLDELQEHVESIDMANDLHSIGGLVPLLSFLKNSHANIRAKAADVVSTIVQNNPRSQELVMETNALESLLSNFTSDTDIHARTQALGAISSLIRHNKPGVTAFKLANGYAGLRDALASDSVRFQRKALNLLQYLLQEDDSDRSIATGLGFPRVMMHLASSDDAEIREAALRGLLELSREKNDGSSSIDKSDEKLRQLLEERIKGITLMSQEDLETVKEERQLVDLLWSICYNEPSSLREKGLVVLPGEDALPPDVASKLFEPPLRASAANRNATEKKDEPMKLLGP",glycan array binding signal (z-score),[1],-0.037
same,glycan array binding signal (z-score),[2],-0.397
same,glycan array binding signal (z-score),[3],-0.665
same,glycan array binding signal (z-score),[4],1.18
same,glycan array binding signal (z-score),[5],-0.11
same,glycan array binding signal (z-score),[6],-0.83
same,glycan array binding signal (z-score),[7],0.595
same,glycan array binding signal (z-score),[8],-0.246
same,glycan array binding signal (z-score),[9],0.405
same,glycan array binding signal (z-score),[10],-0.312
same,glycan array binding signal (z-score),[11],-0.892
same,glycan array binding signal (z-score),[12],-0.781
same,glycan array binding signal (z-score),[13],-0.33
same,glycan array binding signal (z-score),[14],-0.889
same,glycan array binding signal (z-score),[15],-0.171
same,glycan array binding signal (z-score),[16],-0.393
same,glycan array binding signal (z-score),[17],-1.21
same,glycan array binding signal (z-score),[18],-0.201
same,glycan array binding signal (z-score),[19],0.133
same,glycan array binding signal (z-score),[20],0.571
same,glycan array binding signal (z-score),[21],0.001
same,glycan array binding signal (z-score),[22],-0.546
same,glycan array binding signal (z-score),[23],0.28
same,glycan array binding signal (z-score),[24],-0.293
same,glycan array binding signal (z-score),[25],0.509
same,glycan array binding signal (z-score),[26],0.057
same,glycan array binding signal (z-score),[27],0.795
same,glycan array binding signal (z-score),[28],0.561
same,glycan array binding signal (z-score),[29],-0.079
same,glycan array binding signal (z-score),[30],0.853
same,glycan array binding signal (z-score),[31],0.163
same,glycan array binding signal (z-score),[32],0.585
same,glycan array binding signal (z-score),[33],-0.186
same,glycan array binding signal (z-score),[34],-0.037
same,glycan array binding signal (z-score),[35],0.003
same,glycan array binding signal (z-score),[36],-0.666
same,glycan array binding signal (z-score),[37],0.943

# Some of the entries above, set out differently:
binder	measurement	setting	value
AT3G09350(27) (Arabidopsis thaliana), Q84J81 (protein) MAKDGPNWDGLLKWSLSHADGTRPTRQLSEEDRKWFMEAMQSQTVDVVKRMKEITLVMQTPEQVLVEHGVTPEDIQDLLDELQEHVESIDMANDLHSIGGLVPLLSFLKNSHANIRAKAADVVSTIVQNNPRSQELVMETNALESLLSNFTSDTDIHARTQALGAISSLIRHNKPGVTAFKLANGYAGLRDALASDSVRFQRKALNLLQYLLQEDDSDRSIATGLGFPRVMMHLASSDDAEIREAALRGLLELSREKNDGSSSIDKSDEKLRQLLEERIKGITLMSQEDLETVKEERQLVDLLWSICYNEPSSLREKGLVVLPGEDALPPDVASKLFEPPLRASAANRNATEKKDEPMKLLGP	glycan array binding signal (z-score)	[28]	0.561
same	glycan array binding signal (z-score)	[29]	-0.079
same	glycan array binding signal (z-score)	[30]	0.853
